The entries are a selection whose mix differs from that of the whole data set. At the low end of the ranking the order means little.
Key:
Assay in all cases: DAPPL (digital affinity profiling via proximity ligation, sequencing)
Conditions in all cases: 10 mM Tris-HCl pH 7.5, 50 mM NaCl, 1 mM DTT, 4% glycerol, room temperature, 30 min; GST-TFs on glutathione beads, 16-mer random dsDNA library, 0.1% …; high values mean tight binding; double strand, one strand shown; scale: fold enrichment (6-mer frequency, TF over GST control)
FLI1 = biological target: T1, FLI1 (UniProt Q01543)
T1 sequence: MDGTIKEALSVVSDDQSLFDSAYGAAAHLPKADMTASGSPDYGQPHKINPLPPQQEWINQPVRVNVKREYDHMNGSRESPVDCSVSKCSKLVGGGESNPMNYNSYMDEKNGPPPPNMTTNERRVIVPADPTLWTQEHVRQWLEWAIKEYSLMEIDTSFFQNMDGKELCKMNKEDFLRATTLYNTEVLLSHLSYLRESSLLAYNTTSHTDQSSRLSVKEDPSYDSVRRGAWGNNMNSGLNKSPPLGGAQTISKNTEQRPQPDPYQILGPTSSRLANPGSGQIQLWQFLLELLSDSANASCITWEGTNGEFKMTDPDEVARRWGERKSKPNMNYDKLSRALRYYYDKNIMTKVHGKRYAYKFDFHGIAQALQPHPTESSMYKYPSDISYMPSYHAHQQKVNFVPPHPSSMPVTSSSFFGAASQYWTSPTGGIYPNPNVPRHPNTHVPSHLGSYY

By UniProt entry, the sequences of proteins in these tests, tags left out. Where a name states a change or a piece, a line headed by the entry shows the natural chain unless it says otherwise.
UniProt Q01892: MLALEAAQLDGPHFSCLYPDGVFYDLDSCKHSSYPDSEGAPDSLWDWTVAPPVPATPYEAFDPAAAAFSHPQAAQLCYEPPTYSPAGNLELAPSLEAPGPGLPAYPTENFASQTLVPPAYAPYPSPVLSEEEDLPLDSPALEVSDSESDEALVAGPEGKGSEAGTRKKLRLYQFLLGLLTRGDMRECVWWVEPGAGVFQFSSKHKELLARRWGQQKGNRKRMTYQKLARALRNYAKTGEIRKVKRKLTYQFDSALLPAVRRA
UniProt P41161: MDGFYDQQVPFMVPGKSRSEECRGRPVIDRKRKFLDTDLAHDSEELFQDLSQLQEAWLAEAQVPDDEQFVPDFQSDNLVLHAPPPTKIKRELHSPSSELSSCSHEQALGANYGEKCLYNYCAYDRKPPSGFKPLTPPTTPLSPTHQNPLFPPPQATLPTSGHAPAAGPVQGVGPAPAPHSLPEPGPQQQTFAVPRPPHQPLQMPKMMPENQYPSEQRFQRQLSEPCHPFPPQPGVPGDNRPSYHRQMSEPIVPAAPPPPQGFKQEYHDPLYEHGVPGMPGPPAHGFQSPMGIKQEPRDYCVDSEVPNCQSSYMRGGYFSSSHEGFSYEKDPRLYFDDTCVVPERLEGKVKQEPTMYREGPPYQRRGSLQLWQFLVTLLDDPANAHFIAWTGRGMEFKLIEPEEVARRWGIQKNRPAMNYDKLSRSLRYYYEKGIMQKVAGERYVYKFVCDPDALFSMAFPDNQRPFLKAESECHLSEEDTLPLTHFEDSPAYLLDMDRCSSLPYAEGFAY
UniProt Q99607: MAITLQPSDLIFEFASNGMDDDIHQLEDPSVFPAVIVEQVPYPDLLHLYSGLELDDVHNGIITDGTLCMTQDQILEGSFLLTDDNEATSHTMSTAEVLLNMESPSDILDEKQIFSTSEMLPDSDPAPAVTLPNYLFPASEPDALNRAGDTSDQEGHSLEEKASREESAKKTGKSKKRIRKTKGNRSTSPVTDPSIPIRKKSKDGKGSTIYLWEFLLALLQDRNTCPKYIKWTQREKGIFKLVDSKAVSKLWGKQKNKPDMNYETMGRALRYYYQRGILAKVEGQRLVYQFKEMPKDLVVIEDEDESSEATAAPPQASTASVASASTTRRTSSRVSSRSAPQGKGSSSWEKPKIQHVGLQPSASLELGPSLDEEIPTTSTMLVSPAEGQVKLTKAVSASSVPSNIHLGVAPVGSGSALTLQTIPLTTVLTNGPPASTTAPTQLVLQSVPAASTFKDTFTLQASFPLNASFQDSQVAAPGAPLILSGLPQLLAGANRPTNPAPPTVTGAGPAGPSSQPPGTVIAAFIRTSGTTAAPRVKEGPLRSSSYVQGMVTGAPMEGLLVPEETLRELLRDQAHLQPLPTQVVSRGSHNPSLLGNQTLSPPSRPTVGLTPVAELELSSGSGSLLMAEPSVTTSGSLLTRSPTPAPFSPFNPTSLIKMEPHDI

SPIB = SPIB (UniProt Q01892)
ETV5 = ETV5 (UniProt P41161)
ELF4 = ELF4 (UniProt Q99607)
EHF = biological target: T2, EHF (UniProt Q9NZC4)
T2 sequence: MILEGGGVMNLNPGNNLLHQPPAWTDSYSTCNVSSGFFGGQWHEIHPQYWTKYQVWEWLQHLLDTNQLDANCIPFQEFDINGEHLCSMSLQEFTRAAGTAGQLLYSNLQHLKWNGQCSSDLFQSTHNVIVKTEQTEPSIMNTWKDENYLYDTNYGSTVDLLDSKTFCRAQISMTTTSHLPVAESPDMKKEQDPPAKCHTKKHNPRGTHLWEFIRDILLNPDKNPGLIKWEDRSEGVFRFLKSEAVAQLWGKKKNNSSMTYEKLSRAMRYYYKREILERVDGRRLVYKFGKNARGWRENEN

ETV2 = biological target: T3, ETV2 (UniProt O00321)
T3 sequence: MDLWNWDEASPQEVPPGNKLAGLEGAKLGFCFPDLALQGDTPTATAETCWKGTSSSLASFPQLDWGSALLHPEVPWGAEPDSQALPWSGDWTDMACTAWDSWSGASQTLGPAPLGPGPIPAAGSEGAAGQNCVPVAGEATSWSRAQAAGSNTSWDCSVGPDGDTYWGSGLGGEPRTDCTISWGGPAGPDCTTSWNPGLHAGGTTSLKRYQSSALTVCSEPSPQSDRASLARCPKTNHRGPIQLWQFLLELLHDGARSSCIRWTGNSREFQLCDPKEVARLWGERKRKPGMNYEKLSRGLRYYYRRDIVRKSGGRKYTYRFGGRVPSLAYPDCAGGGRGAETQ

ETV3L = biological target: T4, ETV3L (UniProt Q6ZN32)
T4 sequence: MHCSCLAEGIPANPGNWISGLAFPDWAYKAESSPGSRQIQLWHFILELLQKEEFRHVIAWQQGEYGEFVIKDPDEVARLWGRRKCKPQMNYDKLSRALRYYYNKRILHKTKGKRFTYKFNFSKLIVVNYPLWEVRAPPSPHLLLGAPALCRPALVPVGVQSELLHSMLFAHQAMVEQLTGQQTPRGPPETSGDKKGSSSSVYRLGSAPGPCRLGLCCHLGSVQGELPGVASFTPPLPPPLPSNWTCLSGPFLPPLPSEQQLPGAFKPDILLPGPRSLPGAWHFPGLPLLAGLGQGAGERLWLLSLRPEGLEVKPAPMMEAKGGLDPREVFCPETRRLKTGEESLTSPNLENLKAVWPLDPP

Sequence	binding signal (FLI1)	binding signal (SPIB)	binding signal (ETV5)	binding signal (ELF4)	binding signal (EHF)	binding signal (ETV2)	binding signal (ETV3L)
AATTAA	1.26	1.21	1.29				
TTCGAG			1.28	1.29			
TTGGGC	1.03	1.1	1.12		1.1		
TATATG			1.34	1.31			
ATGTGC			1.16	1.17			
TTCGTC			1.33	1.29			
ACTTGT	1.27	1.45	1.21				
TAATCA			1.18	1.11			
GTACTA	1.16	1.1	1.14		1.14		
AAGAAC			1.16	1.2			
ACGCGC	0.999	0.986	0.977				
ATATTC			1.27	1.29			
GAACTT			1.66	1.52			
GTTACT			1.28	1.18			
TTCACA	1.27	1.25	1.16		1.2		
GAATGT			1.07	1.07			
TGACCC			1.41	1.48			
TGCCCT	1.21	1.16	1.11				
ACCCGA			1.08	1.03			
CTACCA	1.27	1.23	1.2		1.22		
GCACTA			1.13	1.27			
CTTAAG			0.973	1.07			
CGCTGG			1	1.02			
TATCTT			1.22	1.24			

Looked up one by one from the list above (four):
Sequence	binding signal (FLI1)	binding signal (SPIB)	binding signal (ETV5)	binding signal (ELF4)	binding signal (EHF)	binding signal (ETV2)	binding signal (ETV3L)
TGCCCT	1.21	1.16	1.11				
AATTAA	1.26	1.21	1.29				
TTCGTC			1.33	1.29			
TATCTT			1.22	1.24			

Later entries:

Sequence	binding signal (FLI1)	binding signal (SPIB)	binding signal (ETV5)	binding signal (ELF4)	binding signal (EHF)	binding signal (ETV2)	binding signal (ETV3L)
CTACGG	1.19	1.28	1.21				
AGGACC			1.04	1.06			
TCCCGG			2.27	2			
GCTCCG			1.33	1.39			
GATGTC	1.25	1.37	1.37				
ATTATC	1.35	1.27	1.26		1.28		
TGGAAT			1.22	1.14			
TACCCC	1.14	1.09	1.07				
GTTTTA	1.17	1.16	1.07				
TGCATC	1.35	1.35	1.39				
CCGAGC			1.14	1.09			
AAAGAT	1.18	1.3	1.25				
GCTCCC	1.37	1.28	1.39				
CCTAGG	0.93	0.976	0.963		0.956		
CAAAGT		1.04					
CCAAGT		0.894					
TAGATT			1.12	1.19	1.24	1.13	
TCGCGT		1.01	0.919	0.947		0.991	0.967
GTTTGT		0.95	0.884	0.969		0.979	1.06
TGCTCC		1.41	1.42	1.41		1.48	1.45
AGCTGA		0.994	0.975	1.01		1.08	0.972
ACTTGG		1.25	1.21	1.31		1.15	1.15
ATGGCG			1.02	0.959	0.97	0.968	
TAAGCA		0.98	0.895	1.03	0.967	0.988	0.947

Sequence	binding signal (FLI1)	binding signal (SPIB)	binding signal (ETV5)	binding signal (ELF4)	binding signal (EHF)	binding signal (ETV2)	binding signal (ETV3L)
TAAGTC		0.891	0.938	0.858	0.835	0.909	0.883
GTGGCA		0.992	0.996	0.916	1.03	1.07	0.964
CGTTGG		0.975	0.918	0.953	0.869	0.805	0.982
CGGGCT			0.888	0.985	0.938	0.942	
AGTGTA		0.999	1.05	0.982	1.02	0.915	0.96
TAAAGG			0.976	0.998	1.12	0.965	
ACCTAG		0.975	0.986	1.06		0.946	1.05
CATTGA		0.874	0.925	0.864	0.933	0.968	
CATTGG		0.891	0.932	0.866	1	0.813	0.978
GTGTAC		0.839	0.949	0.946	0.967	0.809	0.806
GACGTT		0.904	0.856	0.944	0.978	0.983	0.94
GTCCAA		0.86	0.912	0.94	0.962	0.957	0.944
GTTGAT			1.14	1.15	1.04	0.958	
AGTTGC		0.925	0.987	0.958	0.986	0.853	
AGGTTT		1.04	1.05	1.07		1.05	0.998
ATTCGG		0.928	0.896	0.946	0.869	0.945	0.989
GCCTGT		0.886	0.9	0.945	0.91	0.908	0.88
TAGGTA		0.99	0.995	0.999	0.974	0.956	1.01
TGCACA		1.13	1.13	1.12		1.15	1.13
AGTCTC		0.988	0.944	0.989	0.986	0.913	
CACCTA		0.997	0.928	1.1		0.954	0.941
TGAAGA		0.842	0.887	1.01	0.937	0.904	0.924
ACAAAG		0.928	0.987	0.966	0.987	0.985	0.875
TGGATT			1.06	0.996	0.969	0.918	

Sequence	binding signal (FLI1)	binding signal (SPIB)	binding signal (ETV5)	binding signal (ELF4)	binding signal (EHF)	binding signal (ETV2)	binding signal (ETV3L)
TGTTGG		0.755	0.931	0.897	0.962	0.933	0.891
CGCTCG		1.12	1.05	1.17		0.972	0.94
GGCTTA		0.985	1.03	0.975		0.91	0.931
TTGGAA		1	0.97	0.943	1.04	1.02	0.922
GATCAA			0.979	0.991	0.987	1.19	
AGGCCC		0.919	0.95	0.983	0.863	0.875	0.865
TCATCG			1	0.994	1.05	0.969	
TGGGTA		0.966	1.02	0.928		1.14	0.959
GTCGAC		0.985	0.957	0.994			0.948
GGTCTG			0.971	0.993	0.998		0.926
AAATCT		1.29	1.31	1.34		1.24	
CTTTAT		1.19	1.21	1.19			1.22
CGCACA		0.948	0.949	0.955	1.03	0.987	
TCTAGA		0.939	0.938	0.994		0.949	
GCAATT		1.21	1.12	1.12		1.01	
CTACCG		1.73	1.64	1.59		1.47	
TATAGA			1.08	1.09	1.07		1.18
TTGCTG			1.09	1.35	1.25		
AACCGG			1.53	1.31			1.43
ATAATA			1.18	1.14	1.24		
TCGTTA		0.908	0.979	0.933	0.926	1.08	
TCTGGA			0.993	0.962	0.938		1.1
ACGTAT			1.2	1.27	1.29		
GACACT		0.953	0.972	0.99	0.99		1.08

Sequence	binding signal (FLI1)	binding signal (SPIB)	binding signal (ETV5)	binding signal (ELF4)	binding signal (EHF)	binding signal (ETV2)	binding signal (ETV3L)
GTGACT		0.922	0.922	0.941	0.903	0.762	
GCTAGG		0.985	0.969	1.06		0.93	
CTGGTG		0.956	0.875	0.928		0.994	
TATTTG			1.47	1.3			1.47
ATGCGT		1.03	0.991	0.979	0.961		1.1
CCAACG			1.06	1.21			1.1
TAGACT		0.99	0.969	0.981		0.981	
ACTTAG		1.11	1.16	1.03			0.995
TAAGCG		0.956	1.02	0.923			1.03
CTATTA			1.14	1.14	1.12		
GTATGT		0.905	0.956	0.97	0.965		0.973
CAACTG			1.11	1.07			1.17
CCGGTG		0.955	0.983	0.96	0.986	0.886	
TAGATA			0.992	1.07	1.06		1.12
GACCGC		0.923	0.869	0.991	0.926		0.915
GCCGTC		0.959	0.954	0.951	1.1		0.973
TGCGGT			0.955	0.981			0.992
GGATGG		1.03	0.939	0.923	0.952	0.99	
CCGGCT			1.89	1.68			1.69
CTGAAA			1.22	1.13			1.1
GGATTT			1.33	1.26	1.24		
CTACGC			1.6	1.51	1.56		
CGTTGT		0.86	1.01	0.962	0.99	1.13	
ACGCGG			1.02	1			0.968

Whole records, quoted from the list.
TGACCC as listed: binding signal (ETV5) = 1.41; binding signal (ELF4) = 1.48
AAAGAT as listed: binding signal (FLI1) = 1.18; binding signal (SPIB) = 1.3; binding signal (ETV5) = 1.25
